The values below come from patent US6008239A, “Triazole derivative or salt thereof” (SSP Co., Ltd., priority 1997, dated 1999).

The assay relates to C. albicans ATCC 44859. As to the kind of experiment: Antifungal Activity Against Candida albicans (In vitro). Format: cell-based. The following applies: ATCC44859, MEM + 10% fetal bovine serum, 37° C., 24 hours, CO2 incubator, read-out: Terminal point (minimum medicament concentration permitting apparent suppression of mycerial type growth). Here is the method: Test 1: Antifungal Activity Against Candida albicans (In vitro)
They were incubated at 37° C. for 24 hours in a CO2 gas incubator. After incubation, a morphological change of C. albicans was observed under an inverted microscope. The minimum medicament concentration permitting the apparent suppression of mycerial type growth compared with that of a medicament-free control was determined as a terminal point (ng/ml).

Molecules are shown by their SMILES.

Regarding `OC(Cn1cncn1)(Cn1cncn1)c1ccc(F)cc1F` [Fluconazole, reference compound], the MIC stood at 0.25 µg/mL.
